This is one part of the list. The list holds hits alone, and they repeat only in part.

Amino acid sequences for entries named in this document (tags omitted).
CHTF18, Q8WVB6, UniProt Q8WVB6, whole entry: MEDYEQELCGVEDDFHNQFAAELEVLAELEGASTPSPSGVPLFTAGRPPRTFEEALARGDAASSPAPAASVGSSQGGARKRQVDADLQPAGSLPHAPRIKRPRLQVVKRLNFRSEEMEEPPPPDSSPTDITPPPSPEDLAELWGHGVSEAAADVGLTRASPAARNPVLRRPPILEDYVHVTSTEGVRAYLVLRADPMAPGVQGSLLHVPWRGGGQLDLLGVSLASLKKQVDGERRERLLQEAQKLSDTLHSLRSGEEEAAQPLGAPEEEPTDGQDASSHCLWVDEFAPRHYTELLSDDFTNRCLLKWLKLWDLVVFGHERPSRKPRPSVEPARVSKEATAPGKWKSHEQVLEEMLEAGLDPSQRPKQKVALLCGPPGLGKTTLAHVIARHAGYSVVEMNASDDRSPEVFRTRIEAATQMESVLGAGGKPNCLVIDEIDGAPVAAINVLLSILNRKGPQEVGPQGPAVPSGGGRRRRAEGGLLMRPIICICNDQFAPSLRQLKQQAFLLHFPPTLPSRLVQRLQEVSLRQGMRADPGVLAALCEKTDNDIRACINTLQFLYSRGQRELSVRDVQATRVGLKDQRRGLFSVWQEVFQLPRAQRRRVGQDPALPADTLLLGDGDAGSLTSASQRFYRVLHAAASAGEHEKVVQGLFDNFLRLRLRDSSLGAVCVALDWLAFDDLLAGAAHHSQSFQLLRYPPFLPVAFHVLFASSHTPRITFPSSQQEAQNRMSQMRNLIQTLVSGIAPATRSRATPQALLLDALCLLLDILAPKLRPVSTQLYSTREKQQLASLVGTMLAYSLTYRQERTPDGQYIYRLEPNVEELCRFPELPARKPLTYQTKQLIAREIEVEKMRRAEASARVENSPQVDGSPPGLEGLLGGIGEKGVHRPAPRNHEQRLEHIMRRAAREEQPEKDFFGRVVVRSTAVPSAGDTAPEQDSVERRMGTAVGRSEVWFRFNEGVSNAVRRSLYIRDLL
RFC4, P35249, UniProt P35249, whole entry: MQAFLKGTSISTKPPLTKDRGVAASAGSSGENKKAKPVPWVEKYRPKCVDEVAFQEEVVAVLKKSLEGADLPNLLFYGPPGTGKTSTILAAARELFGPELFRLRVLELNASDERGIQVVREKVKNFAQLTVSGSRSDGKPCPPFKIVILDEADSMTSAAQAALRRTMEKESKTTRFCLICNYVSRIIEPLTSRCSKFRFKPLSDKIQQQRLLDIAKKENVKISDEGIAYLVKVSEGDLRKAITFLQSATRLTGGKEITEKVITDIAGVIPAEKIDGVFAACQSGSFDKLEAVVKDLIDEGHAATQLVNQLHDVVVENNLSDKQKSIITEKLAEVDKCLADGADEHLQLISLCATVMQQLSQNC
SNRPG, P62308, UniProt P62308, whole entry: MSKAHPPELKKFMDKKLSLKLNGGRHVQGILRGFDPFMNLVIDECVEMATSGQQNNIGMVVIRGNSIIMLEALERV
DMAP1, Q9NPF5, UniProt Q9NPF5, whole entry: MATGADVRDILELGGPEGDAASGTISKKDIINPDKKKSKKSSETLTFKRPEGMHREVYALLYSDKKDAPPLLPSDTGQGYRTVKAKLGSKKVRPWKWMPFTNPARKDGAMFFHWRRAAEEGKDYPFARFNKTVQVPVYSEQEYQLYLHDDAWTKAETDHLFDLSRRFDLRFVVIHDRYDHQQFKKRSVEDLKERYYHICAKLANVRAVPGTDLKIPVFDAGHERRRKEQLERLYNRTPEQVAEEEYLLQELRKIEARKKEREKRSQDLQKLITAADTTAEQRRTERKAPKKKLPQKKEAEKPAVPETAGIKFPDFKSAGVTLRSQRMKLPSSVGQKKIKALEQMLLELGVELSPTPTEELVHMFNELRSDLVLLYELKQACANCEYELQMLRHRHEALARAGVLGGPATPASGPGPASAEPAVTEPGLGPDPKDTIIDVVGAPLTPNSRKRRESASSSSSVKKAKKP
EIF1, P41567, UniProt P41567, whole entry: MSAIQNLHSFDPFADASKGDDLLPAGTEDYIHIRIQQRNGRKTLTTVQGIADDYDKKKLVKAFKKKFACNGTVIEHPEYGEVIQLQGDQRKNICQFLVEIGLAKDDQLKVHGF
EIF2S2, P20042, UniProt P20042, whole entry: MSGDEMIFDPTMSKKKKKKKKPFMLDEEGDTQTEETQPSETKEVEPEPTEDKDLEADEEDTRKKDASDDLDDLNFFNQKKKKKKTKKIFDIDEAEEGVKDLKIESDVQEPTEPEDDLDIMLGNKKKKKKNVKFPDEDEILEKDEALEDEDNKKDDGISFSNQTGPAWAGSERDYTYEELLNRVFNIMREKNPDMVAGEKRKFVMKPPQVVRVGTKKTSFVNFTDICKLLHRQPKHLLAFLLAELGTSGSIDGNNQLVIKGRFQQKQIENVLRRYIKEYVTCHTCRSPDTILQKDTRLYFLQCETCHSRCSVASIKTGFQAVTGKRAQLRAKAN
EP400, Q96L91, UniProt Q96L91, whole entry: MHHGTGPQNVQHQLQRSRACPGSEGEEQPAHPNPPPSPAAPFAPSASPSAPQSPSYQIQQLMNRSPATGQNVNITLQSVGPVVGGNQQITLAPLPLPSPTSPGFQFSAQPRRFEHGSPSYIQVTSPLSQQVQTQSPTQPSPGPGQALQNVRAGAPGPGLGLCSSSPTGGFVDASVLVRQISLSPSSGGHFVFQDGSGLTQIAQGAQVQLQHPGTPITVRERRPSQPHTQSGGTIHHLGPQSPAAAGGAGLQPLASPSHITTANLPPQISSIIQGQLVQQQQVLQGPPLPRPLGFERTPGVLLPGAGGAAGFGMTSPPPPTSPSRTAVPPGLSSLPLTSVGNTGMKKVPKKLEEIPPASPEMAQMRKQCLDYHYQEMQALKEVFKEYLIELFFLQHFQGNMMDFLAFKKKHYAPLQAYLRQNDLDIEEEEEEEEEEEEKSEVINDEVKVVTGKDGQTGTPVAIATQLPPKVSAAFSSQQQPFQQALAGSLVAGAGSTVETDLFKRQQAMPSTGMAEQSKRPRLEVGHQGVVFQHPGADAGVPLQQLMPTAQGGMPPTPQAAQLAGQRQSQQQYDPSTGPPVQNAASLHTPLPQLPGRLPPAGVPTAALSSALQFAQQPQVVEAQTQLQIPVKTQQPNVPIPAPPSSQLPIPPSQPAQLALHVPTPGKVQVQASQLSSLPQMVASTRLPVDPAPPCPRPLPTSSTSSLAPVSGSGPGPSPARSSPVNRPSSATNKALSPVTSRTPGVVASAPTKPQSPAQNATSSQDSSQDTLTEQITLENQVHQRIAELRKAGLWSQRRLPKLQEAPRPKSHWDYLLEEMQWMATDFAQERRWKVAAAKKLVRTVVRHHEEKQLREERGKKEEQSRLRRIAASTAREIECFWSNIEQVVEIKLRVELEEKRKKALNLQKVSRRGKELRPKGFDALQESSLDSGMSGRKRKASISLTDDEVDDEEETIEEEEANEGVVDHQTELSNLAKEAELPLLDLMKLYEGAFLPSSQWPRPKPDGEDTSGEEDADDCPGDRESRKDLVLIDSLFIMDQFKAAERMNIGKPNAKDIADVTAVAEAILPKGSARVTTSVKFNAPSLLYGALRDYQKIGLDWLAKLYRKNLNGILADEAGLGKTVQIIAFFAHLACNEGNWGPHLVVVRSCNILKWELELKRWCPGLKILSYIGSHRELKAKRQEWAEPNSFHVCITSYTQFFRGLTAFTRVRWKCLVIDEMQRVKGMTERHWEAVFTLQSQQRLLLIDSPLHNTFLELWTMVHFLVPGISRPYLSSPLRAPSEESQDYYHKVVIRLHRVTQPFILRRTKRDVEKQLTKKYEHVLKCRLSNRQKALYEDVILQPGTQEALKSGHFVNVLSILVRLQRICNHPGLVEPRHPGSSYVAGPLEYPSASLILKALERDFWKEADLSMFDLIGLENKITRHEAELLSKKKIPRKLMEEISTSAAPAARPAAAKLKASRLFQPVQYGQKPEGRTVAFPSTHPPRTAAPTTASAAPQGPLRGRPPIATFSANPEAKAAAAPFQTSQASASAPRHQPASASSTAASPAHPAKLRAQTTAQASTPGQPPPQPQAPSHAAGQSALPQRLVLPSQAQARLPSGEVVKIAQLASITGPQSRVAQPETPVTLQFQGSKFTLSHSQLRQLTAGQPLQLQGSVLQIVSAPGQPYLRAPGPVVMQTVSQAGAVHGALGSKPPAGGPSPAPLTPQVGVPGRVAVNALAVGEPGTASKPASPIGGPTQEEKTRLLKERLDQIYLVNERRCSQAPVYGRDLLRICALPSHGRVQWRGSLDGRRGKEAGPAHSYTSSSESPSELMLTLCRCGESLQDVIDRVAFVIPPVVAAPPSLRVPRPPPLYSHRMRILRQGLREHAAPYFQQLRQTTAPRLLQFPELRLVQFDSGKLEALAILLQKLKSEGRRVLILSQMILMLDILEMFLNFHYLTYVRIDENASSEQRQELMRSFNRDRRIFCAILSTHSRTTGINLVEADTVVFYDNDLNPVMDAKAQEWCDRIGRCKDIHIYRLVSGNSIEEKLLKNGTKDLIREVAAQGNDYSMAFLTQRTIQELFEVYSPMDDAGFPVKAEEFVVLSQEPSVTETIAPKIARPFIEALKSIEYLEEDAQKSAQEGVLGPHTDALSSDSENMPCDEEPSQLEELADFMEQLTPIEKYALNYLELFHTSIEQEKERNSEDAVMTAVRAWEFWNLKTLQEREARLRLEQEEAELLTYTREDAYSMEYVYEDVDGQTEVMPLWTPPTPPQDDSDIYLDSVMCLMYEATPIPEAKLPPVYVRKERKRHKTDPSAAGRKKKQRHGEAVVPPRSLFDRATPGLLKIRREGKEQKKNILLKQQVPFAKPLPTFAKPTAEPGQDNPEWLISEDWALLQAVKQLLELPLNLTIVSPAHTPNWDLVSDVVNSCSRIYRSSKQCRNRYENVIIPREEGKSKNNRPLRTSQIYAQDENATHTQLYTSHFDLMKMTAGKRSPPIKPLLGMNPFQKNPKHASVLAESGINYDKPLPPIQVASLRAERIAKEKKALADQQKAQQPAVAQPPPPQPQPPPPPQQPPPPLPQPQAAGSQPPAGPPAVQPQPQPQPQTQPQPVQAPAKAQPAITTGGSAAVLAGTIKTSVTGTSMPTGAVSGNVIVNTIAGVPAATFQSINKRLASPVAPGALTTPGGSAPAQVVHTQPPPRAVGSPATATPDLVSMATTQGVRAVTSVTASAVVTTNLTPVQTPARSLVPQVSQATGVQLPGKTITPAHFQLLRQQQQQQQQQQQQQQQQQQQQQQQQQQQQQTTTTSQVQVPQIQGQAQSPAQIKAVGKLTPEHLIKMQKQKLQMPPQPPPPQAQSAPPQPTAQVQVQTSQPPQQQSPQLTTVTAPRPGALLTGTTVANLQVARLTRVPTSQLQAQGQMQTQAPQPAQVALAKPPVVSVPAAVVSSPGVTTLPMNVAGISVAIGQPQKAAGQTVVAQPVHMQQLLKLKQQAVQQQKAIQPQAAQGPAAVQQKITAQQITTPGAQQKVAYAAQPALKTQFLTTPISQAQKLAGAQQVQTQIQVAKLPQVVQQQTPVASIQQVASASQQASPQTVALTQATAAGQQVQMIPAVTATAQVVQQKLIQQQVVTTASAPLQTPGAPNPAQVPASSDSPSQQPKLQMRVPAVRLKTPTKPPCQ
GABARAP, O95166, UniProt O95166, whole entry: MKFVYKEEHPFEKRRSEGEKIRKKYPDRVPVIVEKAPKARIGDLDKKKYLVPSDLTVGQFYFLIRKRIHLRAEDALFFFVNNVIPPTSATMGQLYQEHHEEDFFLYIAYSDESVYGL
UFM1, P61960, UniProt P61960, whole entry: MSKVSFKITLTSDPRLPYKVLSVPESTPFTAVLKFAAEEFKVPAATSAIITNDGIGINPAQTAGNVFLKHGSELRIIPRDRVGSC
COIL, P38432, UniProt P38432, whole entry: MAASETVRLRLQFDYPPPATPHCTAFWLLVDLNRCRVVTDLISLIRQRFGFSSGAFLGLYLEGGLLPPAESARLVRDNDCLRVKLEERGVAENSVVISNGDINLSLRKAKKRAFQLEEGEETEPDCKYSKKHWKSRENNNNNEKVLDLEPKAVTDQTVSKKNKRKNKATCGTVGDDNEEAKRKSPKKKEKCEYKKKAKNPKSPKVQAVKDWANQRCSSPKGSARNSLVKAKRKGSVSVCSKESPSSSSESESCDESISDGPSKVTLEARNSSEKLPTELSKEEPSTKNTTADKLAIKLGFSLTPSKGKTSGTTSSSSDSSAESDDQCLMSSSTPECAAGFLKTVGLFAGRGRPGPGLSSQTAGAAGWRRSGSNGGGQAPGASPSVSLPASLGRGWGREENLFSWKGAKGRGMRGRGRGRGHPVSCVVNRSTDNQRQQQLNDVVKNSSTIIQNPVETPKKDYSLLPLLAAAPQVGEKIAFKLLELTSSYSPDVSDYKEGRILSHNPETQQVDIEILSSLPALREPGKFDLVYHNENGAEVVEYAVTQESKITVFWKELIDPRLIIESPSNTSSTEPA
PFN1, P07737, UniProt P07737, whole entry: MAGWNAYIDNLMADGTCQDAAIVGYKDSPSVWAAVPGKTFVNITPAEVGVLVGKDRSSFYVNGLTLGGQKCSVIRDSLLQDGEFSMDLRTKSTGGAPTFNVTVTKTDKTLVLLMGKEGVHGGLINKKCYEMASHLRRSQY

Here are results for five molecules from the supplement of paper PMC10032668.

Assay in all cases: PRISMA enrichment of interactor (LFQ) in peptide spot vs all other peptide spots (log2 fold change); higher = stronger / more specific binding of the interactor to the peptide
For one assay, the target named is ACAT2, Q9BWD1. The procedure:
(§1)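 PRISMA: 15-aa overlapping tiles (offset 8 aa) of 60 microproteins, plus SOS1/GLUT1 control peptides, were spot-synthesized on cellulose membranes in triplicate. Membranes were incubated with benzonase-treated HEK293T lysate, and bound proteins were identified by LC-MS/MS with LFQ. Enrichment is the log2 fold change of each protein in one spot versus all other spots. Only interactors passing the significance cutoff are listed.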

The target in a further assay is ARL6IP5, O75915. How it is done:
as §1

The next assay has as its target C19orf53, Q9UNZ5. How it is done: as §1
Another assay addresses CHCHD6, Q9BRQ6. How it is done: as §1
The next assay addresses CTBP1, Q13363. The procedure:
as §1

Another assay deals with CTR9, Q6PD62. How it is done:
as §1

Another assay has as its target ECI2, O75521. How it is done: as §1
Another assay concerns the target EED, O75530. The procedure:
as §1

The target in a further assay is EIF4H, Q15056. The procedure: as §1
A further assay deals with LRRC40, Q9H9A6. How it is done: as §1
The next assay concerns the target MRPL40, Q9NQ50. The procedure: as §1
A further assay addresses POLRMT, O00411. How it is done:
as §1

The next assay has as its target PRRC2C, Q9Y520. How it is done: as §1
In a further assay the target is PSMD14, O00487. The procedure:
as §1

The target of a further assay is RNF2, Q99496. The procedure: as §1
The target in another assay is ACOT13, Q9NPJ3. How it is done: as §1
In another assay the target is DDX51, Q8N8A6. How it is done: as §1
The next assay deals with MAP1B, P46821. The procedure: as §1
Another assay addresses MRPL19, P49406. How it is done:
as §1

For the next assay, the target named is ACAT1, P24752. How it is done:
as §1

The next assay addresses AKAP1, Q92667. The procedure: as §1
The next assay concerns the target CHTF18, Q8WVB6. How it is done:
as §1

A further assay addresses COPG1, Q9Y678. The procedure:
as §1

The target of the next assay is FASTKD3, Q14CZ7. The procedure:
as §1

The next assay deals with GALK1, P51570. How it is done: as §1
Another assay deals with H2AFY2, Q9P0M6. The procedure:
as §1

The next assay concerns the target IMPDH2, P12268. How it is done:
as §1

The target of a further assay is IQCB1, Q15051. How it is done: as §1
The next assay deals with KCNH1, O95259. The procedure:
as §1

The next assay addresses MAP4K4, O95819. How it is done:
as §1

Another assay has as its target MCM6, Q14566. How it is done:
as §1

For a further assay, the target named is NCAPG, Q9BPX3. How it is done: as §1
The next assay deals with PRMT5, O14744. The procedure:
as §1

Another assay has as its target PYCR3, Q53H96. The procedure:
as §1

The next assay concerns the target RFC4, P35249. The procedure: as §1
The next assay concerns the target SDE2, Q6IQ49. How it is done: as §1
In a further assay the target is SH3GL1, Q99961. How it is done: as §1
In the next assay the target is SNRPG, P62308. The procedure: as §1
A further assay addresses SYMPK, Q92797. The procedure:
as §1

The target in another assay is CDCA5, Q96FF9. How it is done: as §1
The target in a further assay is CHTOP, Q9Y3Y2. How it is done:
as §1

A further assay concerns the target DDX5, P17844. How it is done: as §1
A further assay deals with DMAP1, Q9NPF5. The procedure: as §1
For the next assay, the target named is EIF1, P41567. How it is done: as §1
The target in a further assay is EIF2S2, P20042. How it is done: as §1
A further assay addresses EP400, Q96L91. How it is done:
as §1

The next assay deals with G3BP2, Q9UN86. How it is done:
as §1

In the next assay the target is GABARAP, O95166. How it is done:
as §1

The next assay has as its target GABARAPL2, P60520. How it is done: as §1
A further assay concerns the target GOLIM4, O00461. The procedure: as §1
The next assay deals with HMGCL, P35914. How it is done:
as §1

A further assay addresses ITCH, Q96J02. How it is done: as §1
Another assay addresses MRPL27, Q9P0M9. How it is done: as §1
A further assay addresses NOL7, Q9UMY1. How it is done: as §1
The target of a further assay is PAFAH1B3, Q15102. The procedure:
as §1

The next assay deals with PUS1, Q9Y606. The procedure:
as §1

For another assay, the target named is RNF40, O75150. The procedure: as §1
For another assay, the target named is SNRPB2, P08579. How it is done:
as §1

Another assay concerns the target UFM1, P61960. How it is done: as §1
The target in the next assay is ZMAT2, Q96NC0. How it is done:
as §1

Another assay has as its target ACIN1, Q9UKV3. The procedure: as §1
The target in a further assay is ACLY, P53396. How it is done: as §1
A further assay has as its target CDC45, O75419. The procedure: as §1
The target of another assay is CENPB, P07199. The procedure:
as §1

In another assay the target is CLNS1A, P54105. How it is done:
as §1

In a further assay the target is COA6, Q5JTJ3. The procedure:
as §1

A further assay has as its target COIL, P38432. The procedure: as §1
In a further assay the target is DIS3, Q9Y2L1. How it is done:
as §1

The next assay concerns the target FAM98B, Q52LJ0. The procedure:
as §1

The target in a further assay is GDI2, P50395. The procedure:
as §1

Another assay addresses MLEC, Q14165. The procedure:
as §1

In a further assay the target is NEK7, Q8TDX7. How it is done: as §1
The target of a further assay is NOL9, Q5SY16. The procedure:
as §1

The target of the next assay is NOP56, O00567. How it is done: as §1
The next assay deals with PFKP, Q01813. How it is done:
as §1

The target in the next assay is PFN1, P07737. The procedure:
as §1

Another assay deals with PRDX3, P30048. How it is done:
as §1

Another assay has as its target PSMB5, P28074. The procedure: as §1
For a further assay, the target named is PSMG1, O95456. How it is done: as §1
The next assay has as its target RAB2A, P61019. The procedure:
as §1

A further assay addresses RRP7A, Q9Y3A4. The procedure:
as §1

The target in another assay is RTRAF, Q9Y224. The procedure: as §1
For a further assay, the target named is SF1, Q15637. How it is done:
as §1

A further assay has as its target SRSF11, Q05519. The procedure:
as §1

In a further assay the target is SRSF2, Q01130. How it is done: as §1
The next assay has as its target XRN2, Q9H0D6. The procedure: as §1
Another assay deals with ZNF687, Q8N1G0. How it is done: as §1

B1: RP3-332B22.1 (peptide)
chain: LLMKASHKTRLIQGV
As for B1, the “PRISMA enrichment of interactor (log2)” value with ACAT2, Q9BWD1 turned out to be 4.14; in the assay with ARL6IP5, O75915 it was 7.25; in the assay with C19orf53, Q9UNZ5, 6.34; with CHCHD6, Q9BRQ6, 6.34; with CTBP1, Q13363, 3.79; with CTR9, Q6PD62, 7.65. Moreover, the “PRISMA enrichment of interactor (log2)” value with ECI2, O75521 is 5.03; in the assay with EED, O75530, 6.88; with EIF4H, Q15056, 4.56; with LRRC40, Q9H9A6, 6.26; with MRPL40, Q9NQ50 it was 6.55; in the assay with POLRMT, O00411 it was 7.8. In addition, the “PRISMA enrichment of interactor (log2)” value with PRRC2C, Q9Y520 worked out at 6.89; with PSMD14, O00487, 4.26; in the assay with RNF2, Q99496, 3.85.

B2: RP11-464C19.3 (peptide)
chain: WRWLWLGRKRNHPAR
On to B2, for which the “PRISMA enrichment of interactor (log2)” value was 4.64 with ACOT13, Q9NPJ3; 4.55 with DDX51, Q8N8A6; 4.29 with MAP1B, P46821; 6.6 with MRPL19, P49406.

B3: SLCO5A1 (peptide)
chain: RLRSLEAVSVIRMHW
With B3, the “PRISMA enrichment of interactor (log2)” value was determined as 5.17 with ACAT1, P24752; 5.54 in the assay with ACAT2, Q9BWD1; 4.73 with AKAP1, Q92667; 4.14 in the assay with CHTF18, Q8WVB6; 10.5 with COPG1, Q9Y678; 3.87 with FASTKD3, Q14CZ7. The “PRISMA enrichment of interactor (log2)” value with GALK1, P51570 stood at 5; in the assay with H2AFY2, Q9P0M6 it was 6.13; in the assay with IMPDH2, P12268 it was 9.64; in the assay with IQCB1, Q15051, 6.48; with KCNH1, O95259, 3.72; with LRRC40, Q9H9A6, 6.01. Moreover, the “PRISMA enrichment of interactor (log2)” value in the assay with MAP4K4, O95819 was 5.68; with MCM6, Q14566 it was 5.05; with NCAPG, Q9BPX3, 5.05; with PRMT5, O14744, 9.71; with PYCR3, Q53H96, 4.41; with RFC4, P35249, 6.05. In addition, the “PRISMA enrichment of interactor (log2)” value is 4.18 with SDE2, Q6IQ49; 4.54 with SH3GL1, Q99961; 7.13 with SNRPG, P62308; 4.16 in the assay with SYMPK, Q92797.

B4: PVT1 (peptide)
chain: VFSEPDGFTVIFSGL
For B4, the “PRISMA enrichment of interactor (log2)” value with ACAT2, Q9BWD1 came to 4.15; in the assay with C19orf53, Q9UNZ5, 7.62; in the assay with CDCA5, Q96FF9, 4.61; with CHTOP, Q9Y3Y2, 6.05; with DDX5, P17844, 5.35; with DMAP1, Q9NPF5, 4.66. Moreover, the “PRISMA enrichment of interactor (log2)” value came to 6.29 with EIF1, P41567; 5.7 with EIF2S2, P20042; 4.54 with EP400, Q96L91; 5.53 in the assay with G3BP2, Q9UN86; 5.76 in the assay with GABARAP, O95166; 6.38 with GABARAPL2, P60520. Moreover, the “PRISMA enrichment of interactor (log2)” value with GOLIM4, O00461 stood at 4.76; in the assay with HMGCL, P35914, 4.66; with ITCH, Q96J02, 4.56; in the assay with MRPL27, Q9P0M9, 7.29; with NOL7, Q9UMY1 it was 4.92; with PAFAH1B3, Q15102 it was 5.04. Besides, the “PRISMA enrichment of interactor (log2)” value in the assay with PUS1, Q9Y606 was 5.21; with RNF40, O75150 it was 4.57; with SNRPB2, P08579, 5.5; in the assay with UFM1, P61960 it was 5.46; with ZMAT2, Q96NC0 it was 4.71.

B5: PSMB8-AS1 (peptide)
chain: FQKEDVVSLLHQAEV
As to B5, the “PRISMA enrichment of interactor (log2)” value with ACIN1, Q9UKV3 came out at 5.34; with ACLY, P53396, 5.64; with CDC45, O75419, 4.6; in the assay with CENPB, P07199 it was 5.44; in the assay with CLNS1A, P54105 it was 7.69; with COA6, Q5JTJ3, 6.84. Further, the “PRISMA enrichment of interactor (log2)” value was found to be 8.6 with COIL, P38432; 5.95 in the assay with DIS3, Q9Y2L1; 7.31 with FAM98B, Q52LJ0; 6.38 with GDI2, P50395; 11.9 with MLEC, Q14165; 4.7 in the assay with NEK7, Q8TDX7. The “PRISMA enrichment of interactor (log2)” value with NOL9, Q5SY16 is 5.6; with NOP56, O00567, 7.26; with PFKP, Q01813 it was 6.83; with PFN1, P07737, 5.92; with PRDX3, P30048, 7.98; with PSMB5, P28074, 7.91. The “PRISMA enrichment of interactor (log2)” value with PSMG1, O95456 worked out at 7.14; with RAB2A, P61019, 5.51; with RRP7A, Q9Y3A4, 5.56; with RTRAF, Q9Y224, 8; with SF1, Q15637, 4.93; in the assay with SRSF11, Q05519, 6.94. Moreover, the “PRISMA enrichment of interactor (log2)” value worked out at 5.5 with SRSF2, Q01130; 5.6 in the assay with XRN2, Q9H0D6; 5.37 in the assay with ZNF687, Q8N1G0.
